Experimental data published in US20150017665A1, “Peptides and Methods for Detecting MPO-ANCA” (The University of North Carolina at Chapel Hill, priority 2012, published 2015).

System: MPO-ANCA
Assay: Linear versus conformational epitopes: epitope excision MS with pre-digested MPO
Format: binding, human
[1] = loss of reactivity with pre-digested MPO = conformational, Table 1

| Substance | Epitope Structure (Table 6) | Epitope Structure [1] |
| --- | --- | --- |
| DHGLPGYNAWR (listed as Homo sapiens) [aa593-603] | Conformational | Conformational |
| FCGLPQPETVGQLGT (listed as Homo sapiens) [aa605-622] | Conformational | Conformational |
| FPTDQLTPDQER (listed as Homo sapiens) [aa237-248] | Linear | Linear |
| FQDNGR (listed as Homo sapiens) [aa369-374] | Conformational | Conformational |
| FWWENEGVFSMQQR (listed as Homo sapiens) [aa678-691] | Conformational | Conformational |
| IANVFTNAFR (listed as Homo sapiens) [aa490-499] | Conformational | Conformational |
| IGLDLPALNMQR (listed as Homo sapiens) [aa579-590] | Linear | Linear |
| IPCFLAGDTR (listed as Homo sapiens) [aa396-405] | Conformational | Conformational |
| KYLPTYR (listed as Homo sapiens) [aa474-480] | Conformational | Conformational |
| LFEQVMR (listed as Homo sapiens) [aa572-578] | Conformational | Conformational |
| LYQEAR (listed as Homo sapiens) [aa442-447] | Conformational | Conformational |
| NGFPVALAR (listed as Homo sapiens) [aa220-228] | Conformational | Conformational |
| NNIFMSNTYPR (listed as Homo sapiens) [aa715-725] | Conformational | Conformational |
| NQINALTSFVDASMV (listed as Homo sapiens) [aa328-351] | Conformational | Conformational |
| QALAQISLPR (listed as Homo sapiens) [aa692-701] | Conformational | Conformational |
| QNQIAVDEIR (listed as Homo sapiens) [aa560-571] | Conformational | Conformational |
| RDYLPLVLGPTAMR (listed as Homo sapiens) [aa460-473] | Conformational | Conformational |
| RKIVGAMVQIITY (listed as Homo sapiens) [aa447-459] | Linear | Linear |
| RSPTLGASNR (listed as Homo sapiens) [aa184-193] | Conformational | Conformational |
| VFFASWR (listed as Homo sapiens) [aa530-536] | Linear | Linear |
| VGPLLACI (listed as Homo sapiens) [aa657-664] | Conformational | Conformational |
| VVLEGGIDPILR (listed as Homo sapiens) [aa537-548] | Conformational | Conformational |
| WDGER (listed as Homo sapiens) [aa437-441] | Conformational | Conformational |
| WLPAEYEDGFSLPYG (listed as Homo sapiens) [aa198-219] | Conformational | Conformational |
| YQPMEPNPR (listed as Homo sapiens) [aa516-524] | Linear | Linear |
